From the supplement of paper PMC10849652
The list shows a part of the results.

By UniProt entry, the sequences of proteins in these tests, tags left out. Where a name states a change or a piece, a line headed by the entry shows the natural chain unless it says otherwise.
UniProt Q9HCU8: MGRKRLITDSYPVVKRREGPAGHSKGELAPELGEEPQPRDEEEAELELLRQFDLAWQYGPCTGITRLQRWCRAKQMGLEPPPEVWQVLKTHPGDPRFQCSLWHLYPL
UniProt Q9UBT6: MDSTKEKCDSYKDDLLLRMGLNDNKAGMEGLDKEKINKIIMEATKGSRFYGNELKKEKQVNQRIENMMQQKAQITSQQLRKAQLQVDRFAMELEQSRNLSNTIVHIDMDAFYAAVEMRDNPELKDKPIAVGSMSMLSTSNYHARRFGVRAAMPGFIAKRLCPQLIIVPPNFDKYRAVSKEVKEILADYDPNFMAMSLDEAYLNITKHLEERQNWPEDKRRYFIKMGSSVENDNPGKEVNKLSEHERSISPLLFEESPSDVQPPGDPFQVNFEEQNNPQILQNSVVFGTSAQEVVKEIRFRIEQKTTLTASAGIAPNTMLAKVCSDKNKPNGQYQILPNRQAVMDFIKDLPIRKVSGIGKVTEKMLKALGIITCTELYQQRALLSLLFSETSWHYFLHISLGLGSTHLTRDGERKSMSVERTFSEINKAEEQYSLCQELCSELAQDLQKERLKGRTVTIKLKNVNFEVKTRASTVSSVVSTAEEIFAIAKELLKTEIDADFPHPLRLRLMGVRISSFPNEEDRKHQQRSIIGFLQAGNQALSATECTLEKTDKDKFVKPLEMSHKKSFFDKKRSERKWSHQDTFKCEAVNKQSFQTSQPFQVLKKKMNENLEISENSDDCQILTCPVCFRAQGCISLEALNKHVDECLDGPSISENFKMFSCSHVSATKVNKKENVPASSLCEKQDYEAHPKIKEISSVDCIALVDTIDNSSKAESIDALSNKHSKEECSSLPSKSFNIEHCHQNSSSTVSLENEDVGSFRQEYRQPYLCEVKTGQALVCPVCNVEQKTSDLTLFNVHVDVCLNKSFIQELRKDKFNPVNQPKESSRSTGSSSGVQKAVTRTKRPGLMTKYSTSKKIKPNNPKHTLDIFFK
UniProt P11086: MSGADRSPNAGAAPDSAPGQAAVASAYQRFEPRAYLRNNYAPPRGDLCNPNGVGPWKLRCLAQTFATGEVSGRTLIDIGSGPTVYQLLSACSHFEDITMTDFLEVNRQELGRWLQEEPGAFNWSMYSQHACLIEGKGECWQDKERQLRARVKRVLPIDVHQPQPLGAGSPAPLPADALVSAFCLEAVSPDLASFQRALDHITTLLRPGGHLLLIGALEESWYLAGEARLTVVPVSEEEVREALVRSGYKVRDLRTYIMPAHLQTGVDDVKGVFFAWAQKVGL
UniProt Q86V59: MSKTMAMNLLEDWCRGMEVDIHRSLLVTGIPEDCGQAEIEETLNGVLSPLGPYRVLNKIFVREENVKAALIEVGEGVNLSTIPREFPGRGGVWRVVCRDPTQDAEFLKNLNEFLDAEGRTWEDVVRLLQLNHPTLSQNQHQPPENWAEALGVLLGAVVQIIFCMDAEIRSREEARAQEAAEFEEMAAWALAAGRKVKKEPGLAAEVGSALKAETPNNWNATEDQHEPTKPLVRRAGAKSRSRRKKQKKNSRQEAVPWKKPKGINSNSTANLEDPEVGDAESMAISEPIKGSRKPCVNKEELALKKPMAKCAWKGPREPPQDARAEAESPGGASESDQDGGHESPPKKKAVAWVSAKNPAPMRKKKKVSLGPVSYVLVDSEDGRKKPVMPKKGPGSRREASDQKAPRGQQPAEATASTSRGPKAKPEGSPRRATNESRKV
UniProt O43157, whole entry, looked up: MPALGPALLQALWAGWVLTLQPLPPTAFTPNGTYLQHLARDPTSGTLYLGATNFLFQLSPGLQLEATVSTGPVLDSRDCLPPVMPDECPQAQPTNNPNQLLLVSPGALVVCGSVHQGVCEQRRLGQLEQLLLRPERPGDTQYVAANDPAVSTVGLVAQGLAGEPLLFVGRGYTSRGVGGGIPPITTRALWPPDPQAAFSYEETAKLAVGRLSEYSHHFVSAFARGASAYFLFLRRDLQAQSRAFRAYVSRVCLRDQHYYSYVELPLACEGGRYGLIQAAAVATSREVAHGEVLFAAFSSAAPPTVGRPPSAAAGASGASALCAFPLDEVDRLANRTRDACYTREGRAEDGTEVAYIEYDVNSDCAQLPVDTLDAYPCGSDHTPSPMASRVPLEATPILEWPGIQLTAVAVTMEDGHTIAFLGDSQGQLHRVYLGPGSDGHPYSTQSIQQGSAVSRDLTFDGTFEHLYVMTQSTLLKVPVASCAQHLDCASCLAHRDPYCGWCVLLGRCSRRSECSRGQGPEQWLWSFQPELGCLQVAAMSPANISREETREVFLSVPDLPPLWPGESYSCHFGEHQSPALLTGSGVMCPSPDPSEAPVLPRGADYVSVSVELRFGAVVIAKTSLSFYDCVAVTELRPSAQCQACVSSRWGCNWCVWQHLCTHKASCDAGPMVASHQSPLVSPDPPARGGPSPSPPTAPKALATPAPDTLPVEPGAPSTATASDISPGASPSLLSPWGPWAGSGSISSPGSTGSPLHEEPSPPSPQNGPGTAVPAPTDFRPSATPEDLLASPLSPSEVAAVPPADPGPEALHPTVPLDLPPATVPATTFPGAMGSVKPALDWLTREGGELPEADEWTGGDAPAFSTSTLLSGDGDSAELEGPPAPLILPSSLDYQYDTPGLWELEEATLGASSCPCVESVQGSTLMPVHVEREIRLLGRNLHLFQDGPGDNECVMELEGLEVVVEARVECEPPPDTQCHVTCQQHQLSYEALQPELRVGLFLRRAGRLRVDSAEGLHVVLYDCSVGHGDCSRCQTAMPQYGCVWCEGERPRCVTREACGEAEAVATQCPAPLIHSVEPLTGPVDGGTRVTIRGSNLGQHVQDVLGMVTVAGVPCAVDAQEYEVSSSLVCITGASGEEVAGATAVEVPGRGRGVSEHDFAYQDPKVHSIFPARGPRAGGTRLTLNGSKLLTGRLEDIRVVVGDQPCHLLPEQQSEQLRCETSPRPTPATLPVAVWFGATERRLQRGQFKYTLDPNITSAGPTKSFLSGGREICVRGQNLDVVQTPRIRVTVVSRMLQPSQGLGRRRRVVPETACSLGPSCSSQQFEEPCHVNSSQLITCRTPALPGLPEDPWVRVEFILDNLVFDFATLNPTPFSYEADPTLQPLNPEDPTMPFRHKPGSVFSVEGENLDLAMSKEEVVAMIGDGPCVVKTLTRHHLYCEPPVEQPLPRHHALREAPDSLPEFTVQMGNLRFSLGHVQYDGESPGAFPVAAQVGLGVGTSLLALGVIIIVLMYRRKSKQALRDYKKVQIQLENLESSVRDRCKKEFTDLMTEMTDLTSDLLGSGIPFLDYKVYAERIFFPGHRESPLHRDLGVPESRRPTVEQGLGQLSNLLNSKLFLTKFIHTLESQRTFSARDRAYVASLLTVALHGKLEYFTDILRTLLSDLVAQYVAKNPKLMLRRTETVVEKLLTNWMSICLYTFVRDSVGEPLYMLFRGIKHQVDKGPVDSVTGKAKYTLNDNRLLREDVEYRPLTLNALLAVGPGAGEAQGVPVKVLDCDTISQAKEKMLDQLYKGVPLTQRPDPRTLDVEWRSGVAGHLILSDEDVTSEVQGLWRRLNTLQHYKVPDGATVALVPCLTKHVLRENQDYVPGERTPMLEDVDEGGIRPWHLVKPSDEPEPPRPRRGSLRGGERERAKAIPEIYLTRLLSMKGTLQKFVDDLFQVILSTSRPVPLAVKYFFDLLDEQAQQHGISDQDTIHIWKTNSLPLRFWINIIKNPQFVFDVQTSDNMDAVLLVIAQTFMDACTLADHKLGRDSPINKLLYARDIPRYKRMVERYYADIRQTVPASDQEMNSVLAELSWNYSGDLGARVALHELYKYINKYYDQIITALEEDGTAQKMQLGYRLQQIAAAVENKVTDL
UniProt Q8ND30: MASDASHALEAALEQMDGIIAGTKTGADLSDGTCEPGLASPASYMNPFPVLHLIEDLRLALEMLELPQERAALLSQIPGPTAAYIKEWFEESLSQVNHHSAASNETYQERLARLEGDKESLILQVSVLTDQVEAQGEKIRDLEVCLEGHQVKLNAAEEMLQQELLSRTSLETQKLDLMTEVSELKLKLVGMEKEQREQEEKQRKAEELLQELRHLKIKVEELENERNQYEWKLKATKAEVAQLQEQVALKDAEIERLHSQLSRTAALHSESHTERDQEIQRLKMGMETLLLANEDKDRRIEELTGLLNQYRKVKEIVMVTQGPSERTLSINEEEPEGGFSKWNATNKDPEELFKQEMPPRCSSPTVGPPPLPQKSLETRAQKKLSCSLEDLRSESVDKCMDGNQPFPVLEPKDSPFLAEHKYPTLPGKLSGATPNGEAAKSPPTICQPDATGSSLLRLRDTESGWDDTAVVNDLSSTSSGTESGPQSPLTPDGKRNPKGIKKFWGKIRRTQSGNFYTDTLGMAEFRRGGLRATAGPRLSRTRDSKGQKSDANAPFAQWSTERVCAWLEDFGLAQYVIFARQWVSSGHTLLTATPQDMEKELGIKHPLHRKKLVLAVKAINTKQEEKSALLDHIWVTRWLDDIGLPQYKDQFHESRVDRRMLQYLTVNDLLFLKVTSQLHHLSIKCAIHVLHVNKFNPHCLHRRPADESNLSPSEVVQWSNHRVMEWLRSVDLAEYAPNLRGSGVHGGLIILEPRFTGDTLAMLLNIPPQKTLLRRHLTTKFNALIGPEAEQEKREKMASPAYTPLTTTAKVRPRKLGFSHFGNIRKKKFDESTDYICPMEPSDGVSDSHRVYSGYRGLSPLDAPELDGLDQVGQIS
UniProt Q8TC44: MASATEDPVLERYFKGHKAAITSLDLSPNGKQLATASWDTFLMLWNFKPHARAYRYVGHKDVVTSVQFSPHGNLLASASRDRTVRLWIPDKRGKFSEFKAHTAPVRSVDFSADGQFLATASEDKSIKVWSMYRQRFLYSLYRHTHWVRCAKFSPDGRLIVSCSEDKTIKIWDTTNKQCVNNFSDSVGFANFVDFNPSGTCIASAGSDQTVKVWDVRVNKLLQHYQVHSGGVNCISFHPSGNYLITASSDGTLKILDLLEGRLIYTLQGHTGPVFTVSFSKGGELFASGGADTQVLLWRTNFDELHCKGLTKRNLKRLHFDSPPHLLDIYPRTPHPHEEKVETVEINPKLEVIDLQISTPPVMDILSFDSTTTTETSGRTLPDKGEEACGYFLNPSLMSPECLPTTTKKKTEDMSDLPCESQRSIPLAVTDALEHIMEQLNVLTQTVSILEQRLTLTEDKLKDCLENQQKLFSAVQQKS
UniProt Q9UNA4: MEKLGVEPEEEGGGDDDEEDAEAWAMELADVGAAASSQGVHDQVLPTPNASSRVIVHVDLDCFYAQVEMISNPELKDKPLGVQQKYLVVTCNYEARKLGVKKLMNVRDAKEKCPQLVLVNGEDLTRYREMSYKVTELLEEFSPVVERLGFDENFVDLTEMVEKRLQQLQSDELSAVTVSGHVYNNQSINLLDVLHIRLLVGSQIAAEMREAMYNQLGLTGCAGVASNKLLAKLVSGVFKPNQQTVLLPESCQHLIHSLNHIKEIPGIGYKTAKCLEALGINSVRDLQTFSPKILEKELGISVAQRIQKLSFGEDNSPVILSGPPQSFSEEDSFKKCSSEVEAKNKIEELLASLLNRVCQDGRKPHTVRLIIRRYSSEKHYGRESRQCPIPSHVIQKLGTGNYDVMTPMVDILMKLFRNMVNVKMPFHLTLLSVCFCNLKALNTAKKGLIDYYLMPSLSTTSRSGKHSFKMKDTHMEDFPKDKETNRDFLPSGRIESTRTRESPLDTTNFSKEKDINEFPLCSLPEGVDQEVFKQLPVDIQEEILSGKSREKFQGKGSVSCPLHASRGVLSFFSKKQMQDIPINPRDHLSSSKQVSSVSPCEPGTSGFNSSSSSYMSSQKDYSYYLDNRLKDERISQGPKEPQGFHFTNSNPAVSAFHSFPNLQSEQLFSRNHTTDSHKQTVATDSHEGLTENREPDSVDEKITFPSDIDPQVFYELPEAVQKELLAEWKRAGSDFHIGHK
UniProt Q8IYS1: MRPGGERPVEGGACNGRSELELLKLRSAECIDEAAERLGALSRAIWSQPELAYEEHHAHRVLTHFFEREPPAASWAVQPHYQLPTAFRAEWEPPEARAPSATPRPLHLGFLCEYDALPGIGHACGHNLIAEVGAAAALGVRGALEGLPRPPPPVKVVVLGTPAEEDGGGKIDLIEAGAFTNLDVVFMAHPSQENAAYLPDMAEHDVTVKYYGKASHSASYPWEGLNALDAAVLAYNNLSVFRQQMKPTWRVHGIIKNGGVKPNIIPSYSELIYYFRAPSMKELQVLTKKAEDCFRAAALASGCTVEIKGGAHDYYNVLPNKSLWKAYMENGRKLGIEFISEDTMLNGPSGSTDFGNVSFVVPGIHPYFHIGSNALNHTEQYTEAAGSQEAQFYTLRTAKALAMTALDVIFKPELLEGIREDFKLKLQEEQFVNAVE
UniProt P62937, whole entry, looked up: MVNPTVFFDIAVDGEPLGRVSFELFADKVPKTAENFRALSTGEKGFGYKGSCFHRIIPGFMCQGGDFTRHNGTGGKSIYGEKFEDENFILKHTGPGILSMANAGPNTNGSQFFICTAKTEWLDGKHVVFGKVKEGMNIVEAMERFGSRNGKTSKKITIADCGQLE

Assays:
Test in all cases: log2 fold change, soluble protein after heating vs DMSO (PISA); higher = thermal stabilisation; K562 lysate, 10 uM; active = over 0.2 and 3.5 SD of the protein, either way, in both replicates (recomputed)
Tubastatin A = compound: CN1CCc2c(c3ccccc3n2Cc2ccc(C(=O)NO)cc2)C1 [Tubastatin A]
How it was run: (§1)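 The values are log-two fold changes in thermal stability compared with solvent controls and come from duplicates. They were obtained by TMTpro 16plex LC-MS/MS, with channel sums equalised, on the supernatant after 21,000xg for 90 min. That supernatant came from crude K562 extract at 1 mg/mL protein treated with 10 μM compound for 30 min, heated for 3 min across 48°C-58°C, pooled and brought to 0.5% NP-40 at 4°C.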

[1] = compound: COc1cc2nc(-c3cc(F)ccc3O)nc(N[C@@H]3CNC[C@H]3C(C)(C)O)c2cc1OC
How it was run: as §1

[2] = compound: CNC(=O)C1=CC=CC=C1NC2=NC(=NC=C2Cl)NC3=C(C=C(C=C3)N4CCOCC4)OC
How it was run: as §1

defactinib = compound: CNC(=O)c1ccc(Nc2ncc(C(F)(F)F)c(NCc3nccnc3N(C)S(C)(=O)=O)n2)cc1 [defactinib]
How it was run: as §1

[3] = compound: CNc1nc(-c2ccc3c(N)n[nH]c3c2)cc(N2C[C@@H](C(=O)NC3CCCCC3)CC[C@H]2C)n1
How it was run: as §1

encorafenib = compound: COC(=O)N[C@@H](C)CNc1nccc(-c2cn(C(C)C)nc2-c2cc(Cl)cc(NS(C)(=O)=O)c2F)n1 [encorafenib]
How it was run: as §1

[4] = compound: COC(=O)[C@H](CCSC)NC(=O)C1=C(C=C(C=C1)NC[C@H](CS)N)C2=CC=CC=C2
How it was run: as §1

alisertib = compound: COc1cc(Nc2ncc3c(n2)-c2ccc(Cl)cc2C(c2c(F)cccc2OC)=NC3)ccc1C(=O)O [alisertib]
How it was run: as §1

gefitinib = compound: COc1cc2ncnc(Nc3ccc(F)c(Cl)c3)c2cc1OCCCN1CCOCC1 [gefitinib]
How it was run: as §1

alvocidib = compound: CN1CC[C@H](c2c(O)cc(O)c3c(=O)cc(-c4ccccc4Cl)oc23)[C@H](O)C1 [alvocidib]
How it was run: as §1

Measured: log2 fold change

PMS2CL (UniProt Q68D20)
inactive: Tubastatin A 0.097 | [1] 0.108

PPARGC1B (UniProt Q86YN6)
inactive: Tubastatin A -0.074 | [2] -0.017

PLGRKT (UniProt Q9HBL7)
inactive: Tubastatin A 0.072 | [2] 0.004 | defactinib -0.038 | [3] 0.196 | encorafenib 0 | [4] -0.06 | alisertib -0.056 | gefitinib -0.108

PLEKHM1 (UniProt Q9Y4G2)
inactive: Tubastatin A 0.061 | [2] -0.005 | defactinib -0.021 | encorafenib 0.069 | [4] 0.018

POLD4 (UniProt Q9HCU8)
inactive: Tubastatin A 0.037 | [2] 0.175 | defactinib -0.047 | [3] 0.044 | encorafenib -0.033 | [4] -0.047 | alisertib 0.013 | [1] 0.047 | gefitinib 0.038

POLG2 (UniProt J3KRM2)
inactive: [2] -0.081 | alisertib -0.138 | [1] 0.114 | gefitinib 0.021

POLK (UniProt Q9UBT6)
inactive: alisertib 0 | [1] 0.363 | gefitinib 0.014

POLR2F (UniProt U3KPV3)
inactive: [3] -0.059 | encorafenib 0.177 | [4] -0.182

PNMT (UniProt P11086)
inactive: Tubastatin A 0.118 | [2] 0.048 | defactinib -0.257 | [1] -0.022

PLOD2 isoform 2 (UniProt O00469)
inactive: defactinib 0.164 | [3] -0.269 | encorafenib 0.454 | [4] -0.73

PLPPR3 isoform 3 (UniProt Q6T4P5)
inactive: Tubastatin A -0.028 | [3] -0.049

PPHLN1 (UniProt Q8NEY8)
inactive: alvocidib -0.036 | [2] 0.059 | defactinib -0.026 | encorafenib 0.053 | [4] 0.023 | alisertib -0.037 | [1] 0.067 | gefitinib 0

PNMA8A (UniProt Q86V59)
inactive: Tubastatin A -0.071 | [2] 0.002 | [3] -0.009 | encorafenib -0.023 | [4] -0.164 | alisertib -0.003 | [1] 0.083 | gefitinib 0.074

POTEKP (UniProt Q9BYX7)
inactive: Tubastatin A -0.315 | [2] 0.233 | [3] 1.53 | alisertib -0.119 | [1] 1.68 | gefitinib 0.872

POU6F1, A0A1C7CYV8
inactive: Tubastatin A 0.044

POLR2M (UniProt Q6EEV4)
inactive: alvocidib 0.085 | [2] 0.075 | defactinib 0.125 | [3] 0.108 | encorafenib -0.001 | [4] -0.081 | [1] 0.038

PLEKHG4 (UniProt Q58EX7)
inactive: alvocidib -0.016 | Tubastatin A -0.015 | defactinib 0.017 | [3] -0.085 | encorafenib 0.1 | [4] -0.058 | alisertib 0.124 | gefitinib 0.206

PPFIBP1 (UniProt Q86W92)
inactive: encorafenib 0.133 | [4] 0.166

POLR2K (UniProt P53803)
inactive: alvocidib 0.021 | Tubastatin A 0.127 | defactinib 0.081 | [3] 0.13 | encorafenib -0.062 | [4] -0.115

PLXND1 (UniProt Q9Y4D7)
inactive: Tubastatin A 0.111 | [2] 0.015 | [3] -0.123 | alisertib 0.046 | gefitinib 0.313

POGZ (UniProt Q7Z3K3)
inactive: alvocidib -0.171 | Tubastatin A 0.228 | defactinib -0.004 | [3] -0.008 | encorafenib -0.236 | [4] 0.151 | alisertib 0.041 | [1] 0.091 | gefitinib 0.027

PNPLA4 (UniProt P41247)
inactive: alvocidib 0.074 | Tubastatin A 0.147 | defactinib -0.148 | [3] -0.17 | encorafenib -0.076 | [4] 0.125

POM121C (UniProt A8CG34)
inactive: alvocidib -0.089 | Tubastatin A 0.124 | [2] 0.069 | [1] -0.076

PML isoform 11 (UniProt P29590)
inactive: alvocidib 0.043 | defactinib -0.132 | [3] 0.183 | encorafenib 0.089 | [4] -0.058

POF1B isoform 1 (UniProt Q8WVV4)
inactive: alvocidib -0.221 | [3] -0.237

PLXNB1 (UniProt O43157)
inactive: Tubastatin A -0.063 | [2] -0.037 | [3] 0.079 | alisertib -0.07 | gefitinib -0.026

PLSCR3 (UniProt Q9NRY6)
inactive: alvocidib -0.043 | defactinib 0.037 | [3] 0.059 | encorafenib -0.098 | [4] -0.27 | [1] -0.033

PPFIBP2 (UniProt Q8ND30)
inactive: alvocidib 0.091 | encorafenib 0.146 | [4] 0.051

POMT1 (UniProt Q9Y6A1)
inactive: [3] 0.073 | [1] 0.177

POC1B (UniProt Q8TC44)
inactive: Tubastatin A -0.224 | [2] -0.098 | defactinib -0.037 | [3] -0.295 | encorafenib -0.086 | [4] -0.393

POLI (UniProt Q9UNA4)
inactive: alisertib -0.016 | gefitinib -0.141

PLXNA3 (UniProt P51805)
inactive: alvocidib -0.29 | Tubastatin A 0.09 | [2] -0.078 | defactinib 0.068 | encorafenib 0.113 | [4] 0.068 | [1] 0.155

PM20D2 (UniProt Q8IYS1)
inactive: Tubastatin A 0.113 | defactinib 0.034 | encorafenib 0.215 | [4] -0.177 | [1] -0.024

3 neighbouring entries already listed, quoted:
POGZ (UniProt Q7Z3K3)
inactive: alvocidib -0.171 | Tubastatin A 0.228 | defactinib -0.004 | [3] -0.008 | encorafenib -0.236 | [4] 0.151 | alisertib 0.041 | [1] 0.091 | gefitinib 0.027

PNPLA4 (UniProt P41247)
inactive: alvocidib 0.074 | Tubastatin A 0.147 | defactinib -0.148 | [3] -0.17 | encorafenib -0.076 | [4] 0.125

POM121C (UniProt A8CG34)
inactive: alvocidib -0.089 | Tubastatin A 0.124 | [2] 0.069 | [1] -0.076

Continued.

PLP2 (UniProt Q04941)
inactive: alvocidib -0.033 | [2] -0.181 | defactinib 0.008 | [3] -0.355 | encorafenib -0.01 | [4] -0.004 | alisertib -0.105 | [1] -0.006 | gefitinib -0.174

POLR2J (UniProt P52435)
inactive: Tubastatin A -0.028 | [2] 0.013 | [3] 0 | encorafenib -0.076 | [4] 0.013 | alisertib 0.076 | [1] -0.012 | gefitinib -0.062

PLEKHH2 (UniProt E5RGK1)
inactive: alvocidib 0.007 | defactinib -0.104 | [3] 0.052 | encorafenib 0.043 | [4] -0.107 | [1] -0.025

PPIA isoform 2 (UniProt P62937)
inactive: alisertib 0.115 | gefitinib 0.207

PORCN (UniProt Q9H237)
inactive: alisertib -0.479 | gefitinib 0.385

POC1A (UniProt Q8NBT0)
inactive: alvocidib -0.086 | defactinib 0.009 | encorafenib 0.23 | [4] -0.358 | alisertib 0 | [1] -0.001 | gefitinib 0.002
